From PubChem BioAssay AID2685 (National Center for Advancing Translational Sciences (NCATS), 2010)
The other results are listed elsewhere or left out. These are further read-outs of the screen, such as a control signal, another cell line or another target. No call is given for them. The list favours compounds with an active or inconclusive main result. The note in brackets gives the kind of curve behind each potency; many fits are weak.

Assay: qHTS Assay for Lipid Storage Modulators in Drosophila S3 Cells;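 as to cell number change: cells counted by Cell Tracker Red CMTPX staining in the red channel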
Conditions: BODIPY lipid droplet fluorescence, 18-24 h; for cell number change: measured here: cell count max response, cells fed with added oleic acid
Summary of the method: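 Laser-scanning cytometry quantifies lipid droplet accumulation (500–530 nm total intensity; droplet/cell object ratio) in oleic acid-fed (400 uM added) Drosophila S3 cells treated with a concentration series. 20 uM Triacsin C defined 100% inhibition.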

[1] = measured here: lipid fluorescence (Fed channel) AC50, cells fed with added oleic acid
[2] = measured here: cell number channel AC50, cells fed with added oleic acid

Row | SMILES | cell number change [%] | AC50 [1] | AC50 [2]
1 | CCCc1c(C)c2c(C)[nH]nc2oc1=O | 23.2 | 9.2 µM [rising, partial curve, poor fit] | –
2 | C=CCc1cc(OC)ccc1OCCN1CC(C)OC(C)C1 (stereo not given) | 9.09 | 1.64 µM [rising, partial curve] | –
3 | O=C(Cc1nc2ccccc2[nH]1)c1cccc([N+](=O)[O-])c1 | -8.14 | 16.4 µM [falling, single point] | –
4 | CC(C)CN(C(=O)CN1CCN(c2ccccc2O)CC1)c1c(N)n(CC(C)C)c(=O)[nH]c1=O | -0.326 | 9.2 µM [falling, partial curve, poor fit] | –
5 | COc1ccccc1C(=O)NCCn1cc(SCC(=O)Nc2nnc(C)s2)c2ccccc21 | 3.57 | 5.8 µM [rising, partial curve] | –
6 | CCC(C)(C)n1nnnc1C(c1ccc(OC)c(OC)c1)N1CCN(C(=O)c2ccco2)CC1 (stereo not given) | 1.67 | 29.1 µM [rising, partial curve] | –
7 | CC1(c2ccccc2)NC(=O)N(CC(=O)NCC2CCCO2)C1=O (stereo not given) | -28.3 | 29.1 µM [falling, single point] | 0.461 µM [rising, single point]
8 | N#Cc1ccccc1S(=O)(=O)N1CCN(C(=O)CN2CCCC2c2cccs2)CC1 (stereo not given) | -0.743 | – | –
9 | COc1ccc(NC(=O)CSc2nnnn2C2CCCCC2)c(OC)c1 | 6.41 | – | 0.146 µM [rising, full curve, poor fit]
10 | Cc1ccc(C(=O)N(CN2CCCC2=O)c2ccc(F)cc2)cc1 | 25.6 | 6.51 µM [rising, single point] | 0.259 µM [rising, full curve, poor fit]
11 | CCOC(=O)C1CCN(C(=O)c2sc3nc(-c4ccc(F)cc4)cn3c2C)CC1 | 5.35 | 13 µM [rising, single point] | –
12 | COCCNC(=O)c1ccc2c(=O)n(CCOC)c(=O)[nH]c2c1 | -51.1 | 29.1 µM [falling, partial curve, poor fit] | 25.9 µM [falling, partial curve, poor fit]
13 | Cc1cccc(OCCn2nnc3ccccc32)c1C | -18.5 | 2.06 µM [rising, single point] | –
14 | COC(=O)c1c(NC(NC(=O)c2ccccc2)(C(F)(F)F)C(F)(F)F)sc2c1CCN(C)C2 | – | 0.058 µM [falling, full curve] | –
15 | Cc1ccc(CN2CC(C(=O)NCC(=O)Nc3c(C)cccc3C)CC2=O)cc1 (stereo not given) | – | – | 6.51 µM [rising, single point]
16 | CCN(CC)Cc1cc(C(C)=O)ccc1O | -37.9 | 0.82 µM [falling, full curve] | 4.61 µM [falling, full curve]
17 | Cc1cc(=O)n2nc(N3CCCC3C(=O)Nc3ccccc3C)sc2n1 (stereo not given) | 11.5 | – | –
18 | O=C(CSc1nnnn1-c1ccc(O)cc1)N1N=C(c2ccc3ccccc3c2)CC1c1ccccc1 (stereo not given) | 9.87 | 25.9 µM [rising, partial curve] | –
19 | CCn1c(SCCN2CCOCC2)nc2c1c(=O)n(C)c(=O)n2C | 5.47 | 0.58 µM [rising, single point] | 3.26 µM [rising, partial curve, poor fit]

Row | SMILES | cell number change [%] | AC50 [1] | AC50 [2]
20 | CCOC(=O)N1N=C(C)CC1(O)c1ccc(Cl)cc1 (stereo not given) | -0.911 | 0.092 µM [falling, full curve, poor fit] | –
21 | C=CCOc1ccc(C2C(C(=O)c3ccco3)=C(O)C(=O)N2Cc2cccnc2)cc1 (stereo not given) | 22 | – | –
22 | Cc1cc(S(=O)(=O)N2CCN(c3ccc(F)cc3)CC2)c(C)s1 | -43 | 0.13 µM [falling, full curve, poor fit] | 18.4 µM [falling, single point]
23 | O=C(Nc1cccc2c1CCCC2)c1cc([N+](=O)[O-])ccc1Cl | -15.1 | – | –
24 | CCOC(CNC(=O)C(=O)NCC(c1ccco1)N1CCN(c2ccc(OC)cc2)CC1)OCC (stereo not given) | 22.3 | – | –
25 | CC(C)(C)N(Cc1ccccc1)C(=O)COC(=O)CNC(=O)c1ccco1 | 27.6 | – | –
26 | CCOc1cc(C2NC(=O)NC(C)=C2C(=O)NCc2ccccc2)c(Cl)cc1O (stereo not given) | -38.5 | 3.66 µM [falling, full curve] | 0.461 µM [falling, partial curve, poor fit]
27 | CC(=O)COc1ccc2cc(-c3ccccc3)c(=O)oc2c1 | -5.26 | 5.8 µM [falling, single point] | –
28 | Cc1cc(C(=O)OCC(=O)Nc2cc(Cl)ccc2C)c(C)o1 | 3.92 | 0.184 µM [rising, full curve] | 0.0259 µM [rising, partial curve]
29 | O=[N+]([O-])c1ccccc1Oc1cnc2ccccc2n1 | 44.5 | 29.1 µM [rising, single point] | 29.1 µM [rising, single point]
30 | CC(C)Oc1ccc(-c2cc(C(=O)NCCN3CCOCC3)c3ccccc3n2)cc1 | -3.33 | 0.731 µM [falling, full curve] | 1.03 µM [falling, partial curve]
31 | Cc1nc(Nc2ccc(Cl)c(Cl)c2)sc1C(=O)Nc1ccccc1 | -63.4 | – | 29.1 µM [falling, single point]
32 | O=C(NNS(=O)(=O)c1ccccc1)c1ccc(F)cc1 | 28.8 | 29.1 µM [rising, partial curve, poor fit] | –
33 | Brc1ccc(-c2ccc(C3Nc4cccc5cccc(c45)N3)o2)cc1 | -20.3 | 1.16 µM [rising, single point] | –
34 | O=C(CN(C(=O)CCC(=O)Nc1nccs1)c1ccc2c(c1)OCCO2)NCc1ccco1 | 27.1 | 0.58 µM [rising, single point] | –
35 | CCc1ccc(OCC(=O)O/N=C(\N)c2cccnc2)cc1 | 14.3 | 20.6 µM [rising, single point] | –
36 | O=C(COc1ccc(Cl)cc1Br)N1CCN(c2ncccn2)CC1 | -50 | – | 0.0731 µM [falling, full curve, poor fit]
37 | Cc1ccc(NC(=S)N(CCCN2CCCC(C)C2)Cc2ccco2)cc1C (stereo not given) | -0.352 | – | –

2 records picked at random from those above, as already listed:
Row | SMILES | cell number change [%] | AC50 [1] | AC50 [2]
19 | CCn1c(SCCN2CCOCC2)nc2c1c(=O)n(C)c(=O)n2C | 5.47 | 0.58 µM [rising, single point] | 3.26 µM [rising, partial curve, poor fit]
15 | Cc1ccc(CN2CC(C(=O)NCC(=O)Nc3c(C)cccc3C)CC2=O)cc1 (stereo not given) | – | – | 6.51 µM [rising, single point]
